# Literature values in US9417239B2, “Assay to determine LRRK2 activity in parkinson's disease” (PARKINSON'S INSTITUTE, priority 2011, dated 2016).
# At least one compound was matched to its structure with a doubt left.
# System: LRRK2
# Conditions: cited from earlier work
compound,measurement,value
COC1=C2C[C@@H](C)C[C@H](OC)[C@H](O)[C@@H](C)/C=C(\C)[C@H](OC(N)=O)[C@@H](OC)/C=C\C=C(/C)C(=O)NC(=CC1=O)C2=O [geldanamycin],LRRK2 accumulation,decrease LRRK2 accumulation
